Measured values as given in PMC10163288.
This is one part of the list.

B1: il2ra_site2_2erj_normal_mot_HHH_b1_07584_000000201_0001_42_55_H_._HHH_b1_00265_af2_0001_0000300007_0000001_0 (protein)
chain: SSSSDEEEEALELVARAIELAHNGNPEEARRLLEELAKLLEELGNETLLRYVELALRHIRGSSSS
B2: il2ra_site2_3nfp_sap_18_mot_HHH_b2_08245_000000023_0001_41_55_H_._HHH_b2_08322_0001_0001000045_0000001_0_0001 (protein)
chain: SSSSDDAEEHLRAALELLREALEEGDEELFRKIAEMIEKAAEDAKDEEVLEEVRRLLEEFDSSSS
B3: il2ra_site2_2erj_sap_27_mot_HHH_b2_03845_000000122_0001_43_56_H_._HHH_b2_05868_0001_0000100002_0000001_0_0001_af2pred_0001_1_af2pred_swapped (protein)
chain: SSSSSSDLEEEVEELLEEAKHIEDPKRANQVLVQAALLARRLGDQELEEAVLRVDEETSSSSSSS
B4: il2ra_site1_2b5i_normal_mot_HHH_b1_01495_af2_000000272_0001_42_56_H_._HHH_b2_06315_0001_0000400031_0000001_0_af2pred_dldesign_0_af2pred (protein)
chain: SSSSSEKYDRLYDLFEEALRLHKAGKKEEALKVLEEAIKLAKELGDEKLVKELEYLKSLLSSSSS
B5: il2ra_site2_2erj_sap_25_mot_HHH_b2_03387_af2_000000185_0001_39_52_H_._5b296406b44771ef4663aad1364b3660_0001_0001_0000200006_0000001_0_0001_af2pred_0001_1_af2pre … (protein)
chain: SLAESVALWVRLAAKLLGIPSVEVSVENGTLHVTVEGNDELAKRIRAAAELAAEANNITVEVEHE
B6: il2ra_site2_3nfp_normal_mot_HHH_b2_07840_000000026_0001_18_34_H_._HHH_b1_02230_af2_0001_0000200005_0000001_0 (protein)
chain: SSSSSDEEVEELLEEIRRLLEEGDDEQARELIHRASLLIAELRNHELFAIISDLLLLVASSSSSS
B7: il2ra_site2_3nfp_normal_mot_HHH_b2_05281_000000198_0001_39_56_H_._HHH_b2_00233_0001_0000200021_0000001_0 (protein)
chain: SSSSSDEIEEEVRELLEEAEKITDPRELERVLARALRLAYEARDSELFYLVAEVAFKLASSSSSS
B8: il2ra_site2_2erj_sap_19_mot_188d01929fb044e3cb8d3ddba1fb93a8_0001_1_000000115_0001_1_15_H_._HHH_b1_02810_0001_0000400004_0000001_1_0001 (protein)
chain: SSSSSDREEAWERVAELLAQALEATDPEEHRELLEEAKELAEEYNDPFLQRYIEYVEESHSSSSS
B9: il2ra_site2_2erj_sap_21_mot_HHH_b1_05650_000000005_0001_42_56_H_._HHH_b1_05129_0001_0000500029_0000001_0_0001 (protein)
chain: SSSSSEEIRRLYELLVEILRALFEGDEELVEELLEEAEKLARELDSENVKEALELLEKRLHSSSS
B10: il2ra_site1_3nfp_sap_14_mot_d9cc8bee132a485d0ac603caa35b40b0_0001_000000001_0001_14_29_H_._HHH_b1_03760_0001_0000500006_0000001_0_0001_af2pred_0001_af2pred_swap … (protein)
chain: SSSSDDEVYKRVHELLEEALRLAFNGNPEEAREVLEEAKELAEELNDPFLRRAVEKFERTSSSSS
B11: il2ra_site1_3nfp_normal_mot_eb5a5eebac1e5153f932cc6c3f4b2787_0001_af2_000000100_0001_18_33_H_._HHH_b2_06718_0001_0000400018_0000001_0_af2pred_0001_af2pred_swapp … (protein)
chain: SSSSSDVEEEVRELLEEAEQISDPREAQELLREARKLARERNDPELRRLVEEVLRKLAKSSSSSS
B12: il2ra_site1_1z92_sap_7_mot_54e474eed2d0515e81978198f0f96ec2_0001_000000202_0001_15_30_H_._321007649576c6d16d41e547348c2159_0001_0001_0000100011_0000001_0_0001 (protein)
chain: GEEEAEELLKKAGLPPRAIKWLLELLKSAARTNNPRQLEFLLQFIESLVGDPELAREVVELIERE
B13: il2ra_site2_2erj_normal_mot_HHH_b1_06542_af2_000000257_0001_1_17_H_._HHH_b1_08512_af2_0001_0000100007_0000001_0 (protein)
chain: SSSSDETEKALEEFAEEAFENNDRAYLRLLERFLRRTLHVSGDPRIERLLELVEELLERLKSSSS
B14: il2ra_site2_2erj_sap_21_mot_098419f8c790fd6be31b71e918b1b3ba_0001_1_000000064_0001_16_32_H_._HHH_b1_01372_0001_0000200009_0000001_0_0001 (protein)
chain: SSSSSDELHRAYELANILLHLVARNDREEFEEISEEFRELVERLQSENAREILEALERLLSSSSS
B15: il2ra_site2_2erj_sap_25_mot_HHH_b2_02941_af2_000000183_0001_1_17_H_._2bd1b0f3045d084678c76d87b19d0498_0001_0001_0000700033_0000001_0_0001 (protein)
chain: SSSDRERVEELVEEIEELLEEGNPREAIKLATEILELVEEYRDPELHKLAWEALELLMELGSSSS
B16: il2ra_site1_2b5i_normal_mot_22370d59370c406a0c205a431f537cfa_0001_af2_000000141_0001_1_31_H_._HHH_b2_04268_af2_0001_0000400016_0000001_0_af2pred_dldesign_0_af2p … (protein)
chain: SSSSSKEQAKEVSDVIEELVEELGLSDDDYAKLSRLAVELLYKGVSVEEIKERLREEALRLSSSS
B17: il2ra_site1_2b5i_sap_20_mot_HHH_b2_05316_000000083_0001_20_36_H_._HHH_b1_08114_0001_0000100004_0000001_0_0001_af2pred_dldesign_0_af2pred (protein)
chain: SSSSDAAFDEIDELFKKAEEVRRQGKKEETRKLLEEAVKVAEAANDEKAVKQLKYLLENLSSSSS
B18: il2ra_site2_2erj_normal_mot_HHH_b1_06697_000000025_0001_41_54_H_._HHH_eva_0027_0001_0000100002_0000001_0 (protein)
chain: SSSEESEEAEELIEEIAKRLGLDPLAVRFARLTFEDQLENGASPEEALKVAEEALREILEAKSSS
B19: il2ra_site1_1z92_sap_10_mot_HHH_b1_06022_000000044_0001_1_18_H_._HHH_b2_01597_0001_0000700039_0000001_0_0001 (protein)
chain: SSSSDEEHRKRFEELAEIAEELGSEFLARQIELKLERYERAGDPELLRAAERLVEDMKRVWSSSS

What follows are binders tested against il2ra, P01589 (assay: yeast display titration).

Apparent Kd, inactive:
B1 no binding seen
B2 no binding seen
B3 no binding seen
B4 no binding seen
B5 no binding seen
B6 no binding seen
B7 no binding seen
B8 no binding seen
B9 no binding seen
B10 no binding seen
B11 no binding seen
B12 > 1340 nM
B13 no binding seen
B14 no binding seen
B15 no binding seen
B16 no binding seen
B17 no binding seen
B18 no binding seen
B19 no binding seen

Copied from the entries so far for reference:
Apparent Kd, inactive:
B6 no binding seen
B7 no binding seen
B8 no binding seen
B9 no binding seen
